Assay results: article PMC3767597
These are yes or no findings as the source states them, for the method shown. In cells and extracts the contact can be indirect. Some results given as binding are weak or reduced against the parent protein; the word gives no strength.

Molecular target: EZH2 (mouse (endogenous in heart)), Q61188
Experiment: co-IP; nuclear pellet of homogenized whole mouse hearts (wild-type; for the PRC2 subunits also Asxl2 -/-) extracted in high salt buffer (50mM HEPES, 300mM NaCl, 10mM NaF, 1mM EDTA, 1% Triton-X, 1mM Na3VO4); IP with antibodies against the protein of interest and Dynabeads Protein G; mock IP with pre-immune serum; Western blot
Details: remark: other sources report otherwise

- binding: binds
B1: SUZ12, Q80U70 1-741 (protein)
chain: MAPQKHGGGGGGGSGPSAGSGGGGFGGSAAAVAAAASGGKSGGGGCGGGGSYSASSSSAAAAAAAAGAAVLPVKKPKMEHVQADHELFLQAFEKPTQIYRFLRTRNLIAPIFLHRTLTYMSHRNSRTSIKRKTFKVDDMLSKVEKMKGEQESHSLSAHLQLTFTGFFHKNDKPSQNSENEQNSVTLEVLLVKVCHKKRKDVSCPIRQVPTGKKQVPLNPDLNQTKPGNFPSLAVSSNEFEPSNSHMVKSYSLLFRVTRPGRREFNGMINGETNENIDVSEELPARRKRNREDGEKTFVAQMTVFDKNRRLQLLDGEYEVAMQEMEECPISKKRATWETILDGKRLPPFETFSQGPTLQFTLRWTGETNDKSTAPVAKPLATRNSESLHQENKPGSVKPAQTIAVKETLTTELQTRKEKDNSNESRQKLRIFYQFLYNNNTRQQTEARDDLHCPWCTLNCRKLYSLLKHLKLCHSRFIFNYVYHPKGARIDVSINECYDGSYAGNPQDIHRQPGFAFSRNGPVKRTPITHILVCRPKRTKASMSEFLESEDGEVEQQRTYSSGHNRLYFHSDTCLPLRPQEMEVDSEDEKDPEWLREKTITQIEEFSDVNEGEKEVMKLWNLHVMKHGFIADNQMNHACMLFVENYGQKIIKKNLCRNFMLHLVSMHDFNLISIMSIDKAVTKLREMQQKLEKGESATPSNEEIAEEQNGTANGFSETNSKEKALETDGVSGVPKQSKKQKL
